# Changes are numbered by the printed parent chain. Numbers in names are those of the source. These are yes or no findings as the source states them, for the method shown. Some entries that bind do so weakly or less than the wild type. Where a sequence is shown, tags or fusion partners need not be part of it.
# Amino acid sequences for entries named in this document (tags omitted). Residues count along the entry.
# UniProt Q07954, residues 20-4544: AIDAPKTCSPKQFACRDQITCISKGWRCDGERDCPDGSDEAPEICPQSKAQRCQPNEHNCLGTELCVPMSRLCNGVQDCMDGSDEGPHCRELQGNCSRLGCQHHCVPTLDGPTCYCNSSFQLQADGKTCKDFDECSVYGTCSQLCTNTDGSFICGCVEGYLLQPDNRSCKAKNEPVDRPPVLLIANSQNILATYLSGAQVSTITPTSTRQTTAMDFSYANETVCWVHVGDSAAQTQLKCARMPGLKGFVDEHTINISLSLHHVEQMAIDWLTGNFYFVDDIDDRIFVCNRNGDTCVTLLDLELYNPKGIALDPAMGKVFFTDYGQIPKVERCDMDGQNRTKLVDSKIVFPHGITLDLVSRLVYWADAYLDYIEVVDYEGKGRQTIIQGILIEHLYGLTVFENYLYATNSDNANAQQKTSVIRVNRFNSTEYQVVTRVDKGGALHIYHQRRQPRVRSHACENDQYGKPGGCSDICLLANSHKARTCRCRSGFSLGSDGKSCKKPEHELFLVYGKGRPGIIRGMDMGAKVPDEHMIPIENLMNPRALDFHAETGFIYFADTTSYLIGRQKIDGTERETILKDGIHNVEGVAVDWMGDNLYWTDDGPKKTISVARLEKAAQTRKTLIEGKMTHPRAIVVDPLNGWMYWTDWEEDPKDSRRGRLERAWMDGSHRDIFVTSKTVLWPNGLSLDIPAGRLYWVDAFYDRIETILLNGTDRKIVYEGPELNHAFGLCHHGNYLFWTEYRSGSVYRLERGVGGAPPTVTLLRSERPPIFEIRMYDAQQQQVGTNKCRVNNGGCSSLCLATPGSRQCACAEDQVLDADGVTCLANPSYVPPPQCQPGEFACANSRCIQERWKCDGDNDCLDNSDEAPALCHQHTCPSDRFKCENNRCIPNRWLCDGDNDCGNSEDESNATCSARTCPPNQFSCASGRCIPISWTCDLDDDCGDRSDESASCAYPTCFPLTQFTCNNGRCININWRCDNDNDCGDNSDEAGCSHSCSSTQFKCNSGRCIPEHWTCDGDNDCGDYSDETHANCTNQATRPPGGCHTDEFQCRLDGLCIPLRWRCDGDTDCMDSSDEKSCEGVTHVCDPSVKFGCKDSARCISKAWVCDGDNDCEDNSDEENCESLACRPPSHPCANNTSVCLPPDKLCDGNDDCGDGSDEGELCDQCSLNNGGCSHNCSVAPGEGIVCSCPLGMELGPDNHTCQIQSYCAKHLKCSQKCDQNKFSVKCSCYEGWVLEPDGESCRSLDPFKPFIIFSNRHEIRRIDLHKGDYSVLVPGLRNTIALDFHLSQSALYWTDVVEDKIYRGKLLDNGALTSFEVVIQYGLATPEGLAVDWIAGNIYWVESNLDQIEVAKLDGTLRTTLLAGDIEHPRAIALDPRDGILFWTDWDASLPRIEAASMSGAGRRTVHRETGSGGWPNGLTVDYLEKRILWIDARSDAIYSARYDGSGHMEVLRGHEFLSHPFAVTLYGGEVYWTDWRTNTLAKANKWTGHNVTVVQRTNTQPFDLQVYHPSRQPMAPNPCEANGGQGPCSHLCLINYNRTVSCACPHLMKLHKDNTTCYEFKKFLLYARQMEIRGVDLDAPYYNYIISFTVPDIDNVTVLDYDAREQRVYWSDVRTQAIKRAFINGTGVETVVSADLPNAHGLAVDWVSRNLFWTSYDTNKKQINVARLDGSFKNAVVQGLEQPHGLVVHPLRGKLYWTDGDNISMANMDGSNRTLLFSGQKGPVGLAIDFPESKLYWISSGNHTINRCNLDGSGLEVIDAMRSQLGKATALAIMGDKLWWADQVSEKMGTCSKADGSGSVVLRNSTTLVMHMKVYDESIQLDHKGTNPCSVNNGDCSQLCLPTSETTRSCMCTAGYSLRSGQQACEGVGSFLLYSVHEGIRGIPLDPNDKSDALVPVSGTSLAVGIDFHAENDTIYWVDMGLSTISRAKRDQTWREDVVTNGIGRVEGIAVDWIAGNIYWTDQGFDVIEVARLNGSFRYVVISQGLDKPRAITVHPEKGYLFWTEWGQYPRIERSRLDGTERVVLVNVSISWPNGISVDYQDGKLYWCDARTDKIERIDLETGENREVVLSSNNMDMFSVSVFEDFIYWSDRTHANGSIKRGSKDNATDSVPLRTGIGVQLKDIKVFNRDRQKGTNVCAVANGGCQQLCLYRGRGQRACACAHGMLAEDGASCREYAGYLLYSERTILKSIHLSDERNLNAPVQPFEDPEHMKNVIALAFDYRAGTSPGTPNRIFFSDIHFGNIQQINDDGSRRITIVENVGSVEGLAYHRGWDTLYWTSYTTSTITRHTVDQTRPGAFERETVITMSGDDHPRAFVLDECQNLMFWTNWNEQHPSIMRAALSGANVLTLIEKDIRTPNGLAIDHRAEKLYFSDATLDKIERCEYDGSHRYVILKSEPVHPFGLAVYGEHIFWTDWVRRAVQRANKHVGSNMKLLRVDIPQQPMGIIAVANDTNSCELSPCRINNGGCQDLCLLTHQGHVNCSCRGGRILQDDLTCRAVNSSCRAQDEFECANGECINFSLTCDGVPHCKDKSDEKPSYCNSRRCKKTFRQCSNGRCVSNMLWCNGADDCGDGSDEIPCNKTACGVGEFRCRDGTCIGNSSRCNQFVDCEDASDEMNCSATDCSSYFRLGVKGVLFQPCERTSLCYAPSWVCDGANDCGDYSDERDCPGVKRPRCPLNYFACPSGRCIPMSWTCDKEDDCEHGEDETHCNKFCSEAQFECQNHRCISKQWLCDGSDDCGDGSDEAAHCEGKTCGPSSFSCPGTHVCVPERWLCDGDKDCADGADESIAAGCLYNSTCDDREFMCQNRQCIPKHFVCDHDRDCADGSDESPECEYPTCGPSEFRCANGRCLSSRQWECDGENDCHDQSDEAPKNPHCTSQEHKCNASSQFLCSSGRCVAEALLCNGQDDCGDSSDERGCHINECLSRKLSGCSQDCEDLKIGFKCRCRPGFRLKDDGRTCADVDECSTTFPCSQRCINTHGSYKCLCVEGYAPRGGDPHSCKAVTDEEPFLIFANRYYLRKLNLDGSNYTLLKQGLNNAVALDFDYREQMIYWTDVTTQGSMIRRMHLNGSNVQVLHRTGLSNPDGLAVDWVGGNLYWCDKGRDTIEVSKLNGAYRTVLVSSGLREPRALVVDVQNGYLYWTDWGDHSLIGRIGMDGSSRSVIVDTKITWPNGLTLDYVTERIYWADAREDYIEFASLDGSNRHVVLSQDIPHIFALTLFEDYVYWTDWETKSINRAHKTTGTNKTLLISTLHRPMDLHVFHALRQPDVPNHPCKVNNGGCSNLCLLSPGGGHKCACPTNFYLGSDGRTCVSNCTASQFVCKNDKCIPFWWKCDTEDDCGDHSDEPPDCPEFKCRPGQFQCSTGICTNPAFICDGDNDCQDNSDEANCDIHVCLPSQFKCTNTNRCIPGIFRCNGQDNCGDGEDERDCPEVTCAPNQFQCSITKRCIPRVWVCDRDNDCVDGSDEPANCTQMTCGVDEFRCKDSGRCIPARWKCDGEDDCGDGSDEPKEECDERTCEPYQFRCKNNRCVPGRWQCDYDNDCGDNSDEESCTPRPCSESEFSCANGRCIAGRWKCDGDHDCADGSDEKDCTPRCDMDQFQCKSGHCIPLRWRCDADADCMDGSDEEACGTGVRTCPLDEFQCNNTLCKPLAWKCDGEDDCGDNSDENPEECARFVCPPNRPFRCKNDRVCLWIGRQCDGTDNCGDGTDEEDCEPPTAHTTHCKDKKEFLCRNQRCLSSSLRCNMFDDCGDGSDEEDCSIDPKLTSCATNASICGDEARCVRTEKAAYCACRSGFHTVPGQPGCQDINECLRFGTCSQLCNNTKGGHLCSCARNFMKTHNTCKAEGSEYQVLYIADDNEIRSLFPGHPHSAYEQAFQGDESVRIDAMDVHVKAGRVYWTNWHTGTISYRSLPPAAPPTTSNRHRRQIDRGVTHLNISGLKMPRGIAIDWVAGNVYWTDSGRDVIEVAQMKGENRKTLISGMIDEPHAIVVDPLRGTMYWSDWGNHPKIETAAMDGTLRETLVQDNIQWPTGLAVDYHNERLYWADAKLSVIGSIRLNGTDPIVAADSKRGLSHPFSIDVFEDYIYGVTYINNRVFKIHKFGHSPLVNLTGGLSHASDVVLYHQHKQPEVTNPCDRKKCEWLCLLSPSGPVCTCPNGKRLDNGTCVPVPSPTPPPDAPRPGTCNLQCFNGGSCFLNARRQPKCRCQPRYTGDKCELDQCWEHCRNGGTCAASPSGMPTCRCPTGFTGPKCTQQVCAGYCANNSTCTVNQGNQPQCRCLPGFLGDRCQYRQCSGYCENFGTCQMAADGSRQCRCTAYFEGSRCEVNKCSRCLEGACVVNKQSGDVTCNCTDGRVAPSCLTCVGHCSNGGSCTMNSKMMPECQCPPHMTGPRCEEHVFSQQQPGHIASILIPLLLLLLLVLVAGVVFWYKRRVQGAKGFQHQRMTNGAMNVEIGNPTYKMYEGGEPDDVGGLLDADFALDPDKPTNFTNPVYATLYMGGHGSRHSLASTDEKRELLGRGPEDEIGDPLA
# B1: wild-type TIMP-3 (tissue inhibitor of metalloproteinases-3), C-terminally FLAG-tagged (natural protein, UniProt P35625 24-211, looked up)
# chain: CTCSPSHPQDAFCNSDIVIRAKVVGKKLVKEGPFGTLVYTIKQMKMYRGFTKMPHVQYIHTEASESLCGLKLEVNKYQYLLTGRVYDGKMYTGLCNFVERWDQLTLSQRKGLNYRYHLGCNCKIKSCYYLPCFVTSKNECLWTDMLSNFGYPGYQSKHYACIRQKGGYCSWYRGWAPPDKSIINATDP
# notes: TIMP-3, secreted into the conditioned medium; source: for the screen also transiently transfected, conditioned medium dialyzed against TBS; not shown: FLAG, C-terminal, kept
# B2: TIMP-3 K42A/K110A, C-terminally FLAG-tagged (natural protein, UniProt P35625 24-211, looked up)
# chain: B1 chain with K42A, K110A
# notes: TIMP-3, secreted into the conditioned medium; The discussion once calls this mutant K45A/K110A; source: for the screen also transiently transfected, conditioned medium dialyzed against TBS; not shown: FLAG, C-terminal, kept
# B3: TIMP-3 K26A/K45A, C-terminally FLAG-tagged (natural protein, UniProt P35625 24-211, looked up)
# chain: B1 chain with K26A, K45A
# notes: as for B1
# Molecular target: low density lipoprotein receptor-related protein 1 (LRP1), full-length (UniProt Q07954)
# Assay: ELISA; LRP1 (5 nM) coated overnight at 4 °C on medium-binding plates; purified TIMP-3 0.4-50 nM in TNC buffer (50 mM Tris-HCl pH 7.5, 150 mM NaCl, 10 mM CaCl2, 0.05% Brij 35) with 5% BSA, 3 h, 25 °C; detected with anti-FLAG M2 and anti-mouse-HRP; both purified
row,Binder,binding
1,B1,binds
2,B2,binds weakly
3,B3,binds

# — article PMC5063997, “Engineered Tissue Inhibitor of Metalloproteinases-3 Variants Resistant to Endocytosis Have Prolonged Chondroprotective Activity*” (The Journal of Biological Chemistry, 2016)
